These are yes or no findings as the source states them, for the method shown. In cells and extracts the contact can be indirect. Here binding means that the protein was enriched with, or labelled near, the bait; the list need not be complete.
Tests used:
[1] = molecular target: aryl hydrocarbon receptor nuclear translocator (ARNT), endogenous in Min6 cells (mouse) (UniProt P53762); assay: affinity purification of ARNT from Min6 cells, mass spectrometry
[2] = molecular target: aryl hydrocarbon receptor nuclear translocator (ARNT), endogenous in Min6 cells (mouse) (UniProt P53762); assay: co-immunoprecipitation from Min6 cells, Western blot; confirmed by mass spectrometry

By UniProt entry, the sequences of proteins in these tests, tags left out. Residues count along the entry.
UniProt P53762, residues 2-791: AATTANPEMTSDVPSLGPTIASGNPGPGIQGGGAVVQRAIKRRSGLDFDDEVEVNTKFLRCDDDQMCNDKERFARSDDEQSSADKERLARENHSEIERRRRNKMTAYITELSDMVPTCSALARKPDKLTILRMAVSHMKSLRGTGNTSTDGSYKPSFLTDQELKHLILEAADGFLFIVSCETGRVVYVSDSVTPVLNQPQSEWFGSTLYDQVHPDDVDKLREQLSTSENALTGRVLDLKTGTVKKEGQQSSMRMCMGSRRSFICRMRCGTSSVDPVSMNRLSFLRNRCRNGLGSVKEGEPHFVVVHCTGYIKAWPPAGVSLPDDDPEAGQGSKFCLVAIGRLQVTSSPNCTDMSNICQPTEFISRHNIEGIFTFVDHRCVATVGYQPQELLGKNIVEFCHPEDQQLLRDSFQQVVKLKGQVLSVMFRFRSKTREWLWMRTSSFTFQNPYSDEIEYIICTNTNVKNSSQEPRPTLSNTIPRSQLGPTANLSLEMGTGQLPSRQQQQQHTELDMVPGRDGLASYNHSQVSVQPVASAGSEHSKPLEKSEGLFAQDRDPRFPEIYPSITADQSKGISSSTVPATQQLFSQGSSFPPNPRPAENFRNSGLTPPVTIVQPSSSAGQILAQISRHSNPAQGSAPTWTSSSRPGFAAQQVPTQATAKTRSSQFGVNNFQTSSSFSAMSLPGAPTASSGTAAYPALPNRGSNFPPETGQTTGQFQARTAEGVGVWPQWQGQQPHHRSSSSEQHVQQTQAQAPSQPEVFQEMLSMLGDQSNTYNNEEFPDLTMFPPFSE
UniProt Q61324: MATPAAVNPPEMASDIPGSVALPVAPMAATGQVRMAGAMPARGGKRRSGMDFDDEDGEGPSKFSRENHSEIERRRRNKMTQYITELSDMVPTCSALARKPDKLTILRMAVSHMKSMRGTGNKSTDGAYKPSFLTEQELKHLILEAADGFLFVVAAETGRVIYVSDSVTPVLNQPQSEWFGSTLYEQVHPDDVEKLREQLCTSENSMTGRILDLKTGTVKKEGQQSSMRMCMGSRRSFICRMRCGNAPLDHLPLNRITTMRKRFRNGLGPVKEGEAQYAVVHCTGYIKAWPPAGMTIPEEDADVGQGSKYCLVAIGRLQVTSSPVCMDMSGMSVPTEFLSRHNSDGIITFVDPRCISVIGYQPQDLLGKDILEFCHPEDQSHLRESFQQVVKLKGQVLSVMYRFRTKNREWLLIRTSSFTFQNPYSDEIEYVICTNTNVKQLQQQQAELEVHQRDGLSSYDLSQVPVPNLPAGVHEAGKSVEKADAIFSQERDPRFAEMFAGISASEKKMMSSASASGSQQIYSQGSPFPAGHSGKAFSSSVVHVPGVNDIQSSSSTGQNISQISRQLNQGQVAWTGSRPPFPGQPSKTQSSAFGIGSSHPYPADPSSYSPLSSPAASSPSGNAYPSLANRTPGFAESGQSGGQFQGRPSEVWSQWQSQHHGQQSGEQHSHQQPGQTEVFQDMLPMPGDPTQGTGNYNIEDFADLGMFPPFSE

binding [1]: binds
binding [2]: binds
Substance: aryl hydrocarbon nuclear receptor translocator 2 (ARNT2), endogenous in murine Min6 cells (from UniProt Q61324 1-712)

Source: patent publication US20080102032A1
